Data as given in PubChem BioAssay AID1259308 (NCATS, 2017).

- Assay: 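Candidate targets for better recombinant protein yield in mammalian cells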 (primary screen)
- Cells: human HEK293 embryonic kidney cells stably expressing firefly luciferase (HEK-CMV-Luc2-Hygro)
- Reagent: single siRNA against human genes, 0.8 pmol siRNA per well
- Time to read-out: 72 h
- Measurement: 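Luciferase light (ONE-Glo) measured on one replicate plate set and viability (CellTiter-Glo) on the other, scaled to a negative control siRNA, with robust z-scores and luciferase per cell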
- Scale: total luciferase, z-score: higher = more reporter protein produced
- Call rule: 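An siRNA counts as active if its total luciferase robust z-score exceeds 3; genes with two or more such siRNAs out of three were retested with fresh siRNAs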
- Meaning of the calls: active = raised luciferase; inactive = no rise
The deposit covers about 59,000 reagents; this is an unselected part. About 1,510 of them (2.6%) were called active. 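Calls use total luciferase alone and ignore viability, so some active siRNAs may act by altering cell number.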 Reagents against one gene are numbered here. Further read-outs or replicates are left out here.

For MKS1 (MKS transition zone complex subunit 1) #1, what does the deposit list?
total luciferase, z-score: -0.256; outcome: inactive

With MKS1 (MKS transition zone complex subunit 1) #2, how do the results read?
total luciferase, z-score: -2.66; outcome: inactive

With MKS1 (MKS transition zone complex subunit 1) #3, how do the results read?
total luciferase, z-score: 0.179; outcome: inactive

With FOSB (FosB proto-oncogene, AP-1 transcription factor subunit) #1, how do the results read?
total luciferase, z-score: -0.309; outcome: inactive

With FOSB (FosB proto-oncogene, AP-1 transcription factor subunit) #2, how do the results read?
total luciferase, z-score: 0.855; outcome: inactive

What did the screen give for FOSB (FosB proto-oncogene, AP-1 transcription factor subunit) #3?
total luciferase, z-score: 0.323; outcome: inactive

2 successive records already listed, for reference:
MKS1 (MKS transition zone complex subunit 1) #3 | total luciferase, z-score: 0.179; outcome: inactive
FOSB (FosB proto-oncogene, AP-1 transcription factor subunit) #1 | total luciferase, z-score: -0.309; outcome: inactive

The listing continues:
What is on record for C22orf39 (chromosome 22 open reading frame 39) #1?
total luciferase, z-score: 0.329; outcome: inactive

With C22orf39 (chromosome 22 open reading frame 39) #2, what does the deposit list?
total luciferase, z-score: 0.345; outcome: inactive

What did the screen give for C22orf39 (chromosome 22 open reading frame 39) #3?
total luciferase, z-score: -0.283; outcome: inactive

How did the screen score USH1G (USH1 protein network component sans) #1?
total luciferase, z-score: -1.04; outcome: inactive

For USH1G (USH1 protein network component sans) #2, what was measured?
total luciferase, z-score: 1.07; outcome: inactive

What did the screen give for USH1G (USH1 protein network component sans) #3?
total luciferase, z-score: 0.416; outcome: inactive
